Reference: the supplement of paper PMC10849652
This is one part of the list.

The chains behind the UniProt entries cited, without tags or fusion partners. Where a name states a change or a piece, a line headed by the entry shows the natural chain unless it says otherwise.
UniProt Q14152, whole entry, looked up: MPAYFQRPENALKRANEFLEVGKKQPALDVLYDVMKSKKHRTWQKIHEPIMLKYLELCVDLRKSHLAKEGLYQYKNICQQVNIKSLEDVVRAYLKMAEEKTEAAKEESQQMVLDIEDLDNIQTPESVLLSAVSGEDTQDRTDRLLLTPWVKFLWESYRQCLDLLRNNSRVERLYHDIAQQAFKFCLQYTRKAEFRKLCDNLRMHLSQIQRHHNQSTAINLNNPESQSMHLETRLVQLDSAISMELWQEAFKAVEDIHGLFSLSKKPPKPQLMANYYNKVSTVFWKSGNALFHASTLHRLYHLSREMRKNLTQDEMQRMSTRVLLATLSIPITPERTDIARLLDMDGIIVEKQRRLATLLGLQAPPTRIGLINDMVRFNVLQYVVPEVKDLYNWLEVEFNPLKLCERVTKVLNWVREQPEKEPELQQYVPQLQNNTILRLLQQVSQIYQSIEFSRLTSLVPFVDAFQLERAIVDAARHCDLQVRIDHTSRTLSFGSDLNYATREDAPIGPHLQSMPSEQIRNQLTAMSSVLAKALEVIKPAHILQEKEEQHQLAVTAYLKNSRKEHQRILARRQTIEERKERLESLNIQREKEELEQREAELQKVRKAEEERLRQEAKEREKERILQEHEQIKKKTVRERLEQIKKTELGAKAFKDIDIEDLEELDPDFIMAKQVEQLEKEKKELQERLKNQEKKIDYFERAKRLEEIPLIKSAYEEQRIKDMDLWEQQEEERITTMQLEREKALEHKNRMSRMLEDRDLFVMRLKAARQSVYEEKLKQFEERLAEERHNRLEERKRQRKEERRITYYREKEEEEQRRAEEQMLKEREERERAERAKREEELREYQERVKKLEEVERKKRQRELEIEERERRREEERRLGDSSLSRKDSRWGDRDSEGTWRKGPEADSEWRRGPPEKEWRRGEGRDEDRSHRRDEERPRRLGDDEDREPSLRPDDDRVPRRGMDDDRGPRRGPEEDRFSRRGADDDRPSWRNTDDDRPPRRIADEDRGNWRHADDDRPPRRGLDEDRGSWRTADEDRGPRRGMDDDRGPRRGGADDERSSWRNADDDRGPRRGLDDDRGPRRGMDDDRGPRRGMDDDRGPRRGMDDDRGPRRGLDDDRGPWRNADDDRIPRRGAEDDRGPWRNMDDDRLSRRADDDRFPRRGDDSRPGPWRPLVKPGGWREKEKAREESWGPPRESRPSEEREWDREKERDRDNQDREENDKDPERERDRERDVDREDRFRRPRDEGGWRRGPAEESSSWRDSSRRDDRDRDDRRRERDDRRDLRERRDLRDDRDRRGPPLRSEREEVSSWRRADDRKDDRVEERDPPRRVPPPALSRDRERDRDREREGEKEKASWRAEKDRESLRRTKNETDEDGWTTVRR
UniProt Q9UBQ5, whole entry, looked up: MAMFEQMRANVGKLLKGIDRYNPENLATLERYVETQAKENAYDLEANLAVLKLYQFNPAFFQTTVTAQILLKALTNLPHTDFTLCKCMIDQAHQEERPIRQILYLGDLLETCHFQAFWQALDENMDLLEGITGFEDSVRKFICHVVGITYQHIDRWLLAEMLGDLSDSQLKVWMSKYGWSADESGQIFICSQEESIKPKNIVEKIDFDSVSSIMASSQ
UniProt P32519: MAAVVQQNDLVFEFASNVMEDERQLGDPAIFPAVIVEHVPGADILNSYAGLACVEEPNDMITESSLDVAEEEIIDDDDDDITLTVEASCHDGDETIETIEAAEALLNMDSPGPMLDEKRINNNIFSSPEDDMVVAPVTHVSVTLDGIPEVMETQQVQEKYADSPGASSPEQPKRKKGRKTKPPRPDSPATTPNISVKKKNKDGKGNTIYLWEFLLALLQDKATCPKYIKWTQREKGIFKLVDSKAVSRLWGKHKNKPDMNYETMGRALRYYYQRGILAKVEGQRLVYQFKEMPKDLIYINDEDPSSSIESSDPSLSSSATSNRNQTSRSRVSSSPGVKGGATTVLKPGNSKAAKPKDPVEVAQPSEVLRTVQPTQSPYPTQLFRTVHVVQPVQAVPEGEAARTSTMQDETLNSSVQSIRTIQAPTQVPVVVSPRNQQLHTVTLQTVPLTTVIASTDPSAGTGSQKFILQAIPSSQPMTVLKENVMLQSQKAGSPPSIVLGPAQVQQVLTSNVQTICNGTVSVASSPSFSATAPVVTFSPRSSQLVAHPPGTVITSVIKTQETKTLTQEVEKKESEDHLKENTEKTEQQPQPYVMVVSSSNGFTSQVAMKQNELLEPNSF
UniProt Q8IV48: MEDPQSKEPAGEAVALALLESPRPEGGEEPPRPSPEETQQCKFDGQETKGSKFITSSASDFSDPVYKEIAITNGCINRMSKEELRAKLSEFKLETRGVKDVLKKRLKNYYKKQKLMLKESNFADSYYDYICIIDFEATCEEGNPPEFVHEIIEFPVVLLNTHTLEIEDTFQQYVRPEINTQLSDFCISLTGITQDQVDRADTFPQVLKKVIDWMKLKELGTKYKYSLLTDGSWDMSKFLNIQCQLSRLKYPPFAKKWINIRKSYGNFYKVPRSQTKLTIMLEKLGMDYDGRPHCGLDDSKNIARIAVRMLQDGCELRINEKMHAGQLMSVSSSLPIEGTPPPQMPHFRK
UniProt Q9Y2J2, whole entry, looked up: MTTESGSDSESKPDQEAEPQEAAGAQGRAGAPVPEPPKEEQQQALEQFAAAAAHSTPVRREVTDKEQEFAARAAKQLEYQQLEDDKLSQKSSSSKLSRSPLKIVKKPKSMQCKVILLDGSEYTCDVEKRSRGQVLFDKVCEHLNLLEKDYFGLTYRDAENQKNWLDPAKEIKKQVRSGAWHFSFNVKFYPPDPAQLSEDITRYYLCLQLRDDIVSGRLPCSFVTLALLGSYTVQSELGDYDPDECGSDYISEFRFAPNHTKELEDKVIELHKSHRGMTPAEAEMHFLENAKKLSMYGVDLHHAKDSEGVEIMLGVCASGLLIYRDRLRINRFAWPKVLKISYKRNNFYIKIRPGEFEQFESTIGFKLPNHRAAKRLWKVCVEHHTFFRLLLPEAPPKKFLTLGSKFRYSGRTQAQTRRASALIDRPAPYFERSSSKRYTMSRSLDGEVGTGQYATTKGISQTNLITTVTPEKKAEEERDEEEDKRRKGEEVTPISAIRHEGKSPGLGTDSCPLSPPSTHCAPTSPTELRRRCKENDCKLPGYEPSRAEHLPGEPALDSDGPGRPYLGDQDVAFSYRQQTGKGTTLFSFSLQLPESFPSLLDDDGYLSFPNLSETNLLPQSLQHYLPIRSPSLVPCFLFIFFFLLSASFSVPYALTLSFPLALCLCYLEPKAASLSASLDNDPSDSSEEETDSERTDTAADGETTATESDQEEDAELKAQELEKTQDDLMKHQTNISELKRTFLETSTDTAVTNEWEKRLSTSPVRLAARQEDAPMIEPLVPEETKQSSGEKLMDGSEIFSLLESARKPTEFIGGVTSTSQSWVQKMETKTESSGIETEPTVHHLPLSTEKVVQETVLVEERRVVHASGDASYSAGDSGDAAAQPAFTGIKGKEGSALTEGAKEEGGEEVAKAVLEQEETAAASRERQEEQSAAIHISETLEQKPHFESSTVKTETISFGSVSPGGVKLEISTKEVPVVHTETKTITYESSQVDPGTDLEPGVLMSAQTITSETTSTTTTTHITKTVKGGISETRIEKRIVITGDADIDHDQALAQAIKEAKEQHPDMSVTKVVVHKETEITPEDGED
UniProt Q9NPA8: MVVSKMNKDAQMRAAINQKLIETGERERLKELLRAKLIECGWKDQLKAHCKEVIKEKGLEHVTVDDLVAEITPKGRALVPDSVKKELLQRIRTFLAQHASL
UniProt O75616: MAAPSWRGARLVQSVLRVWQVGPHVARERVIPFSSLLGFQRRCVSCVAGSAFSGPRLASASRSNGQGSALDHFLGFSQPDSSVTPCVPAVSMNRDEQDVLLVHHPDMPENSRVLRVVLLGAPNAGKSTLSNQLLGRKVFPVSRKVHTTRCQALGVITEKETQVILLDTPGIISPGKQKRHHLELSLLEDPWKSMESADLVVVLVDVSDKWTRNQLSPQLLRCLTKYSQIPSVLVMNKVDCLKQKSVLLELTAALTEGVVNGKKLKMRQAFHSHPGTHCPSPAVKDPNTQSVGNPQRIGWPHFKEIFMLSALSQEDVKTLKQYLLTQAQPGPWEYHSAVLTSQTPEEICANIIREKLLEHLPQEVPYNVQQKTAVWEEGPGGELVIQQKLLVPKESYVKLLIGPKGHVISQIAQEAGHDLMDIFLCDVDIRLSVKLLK
UniProt Q9H4G0, whole entry, looked up: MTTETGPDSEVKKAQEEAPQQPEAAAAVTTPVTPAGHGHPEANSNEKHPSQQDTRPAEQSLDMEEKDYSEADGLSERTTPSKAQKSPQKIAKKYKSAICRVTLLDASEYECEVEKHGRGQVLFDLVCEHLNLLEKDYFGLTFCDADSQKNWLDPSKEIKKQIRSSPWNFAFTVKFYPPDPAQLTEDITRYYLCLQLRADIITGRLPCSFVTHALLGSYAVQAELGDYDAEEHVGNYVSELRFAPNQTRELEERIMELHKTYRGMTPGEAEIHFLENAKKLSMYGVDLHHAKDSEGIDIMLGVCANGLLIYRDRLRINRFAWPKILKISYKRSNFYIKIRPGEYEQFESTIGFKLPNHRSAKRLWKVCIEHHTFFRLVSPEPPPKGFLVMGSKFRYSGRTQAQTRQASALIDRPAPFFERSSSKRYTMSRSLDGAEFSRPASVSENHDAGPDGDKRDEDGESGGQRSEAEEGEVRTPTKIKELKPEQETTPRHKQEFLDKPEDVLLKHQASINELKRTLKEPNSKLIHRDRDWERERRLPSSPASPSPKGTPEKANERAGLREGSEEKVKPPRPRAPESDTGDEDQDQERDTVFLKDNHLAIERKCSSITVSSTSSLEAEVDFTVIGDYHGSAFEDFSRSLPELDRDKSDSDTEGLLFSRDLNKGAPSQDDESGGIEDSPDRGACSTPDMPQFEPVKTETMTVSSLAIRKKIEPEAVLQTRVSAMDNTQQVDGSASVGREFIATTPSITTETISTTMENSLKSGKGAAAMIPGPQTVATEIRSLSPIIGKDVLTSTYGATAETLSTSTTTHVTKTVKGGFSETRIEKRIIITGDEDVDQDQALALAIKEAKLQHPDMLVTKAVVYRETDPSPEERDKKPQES
UniProt Q13347, whole entry, looked up: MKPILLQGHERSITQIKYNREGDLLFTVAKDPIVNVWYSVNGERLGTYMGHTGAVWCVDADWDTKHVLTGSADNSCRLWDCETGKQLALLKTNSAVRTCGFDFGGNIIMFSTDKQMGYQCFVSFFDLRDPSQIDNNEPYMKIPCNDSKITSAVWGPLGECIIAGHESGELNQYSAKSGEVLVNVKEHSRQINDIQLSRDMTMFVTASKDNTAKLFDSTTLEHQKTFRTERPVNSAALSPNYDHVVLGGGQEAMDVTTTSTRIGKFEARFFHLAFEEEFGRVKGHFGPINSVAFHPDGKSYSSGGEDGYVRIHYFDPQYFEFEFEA
UniProt O43768: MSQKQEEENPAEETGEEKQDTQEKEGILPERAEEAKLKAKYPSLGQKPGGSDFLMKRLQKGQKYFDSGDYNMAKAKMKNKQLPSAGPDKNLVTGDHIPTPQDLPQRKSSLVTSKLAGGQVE
UniProt P55884, whole entry, looked up: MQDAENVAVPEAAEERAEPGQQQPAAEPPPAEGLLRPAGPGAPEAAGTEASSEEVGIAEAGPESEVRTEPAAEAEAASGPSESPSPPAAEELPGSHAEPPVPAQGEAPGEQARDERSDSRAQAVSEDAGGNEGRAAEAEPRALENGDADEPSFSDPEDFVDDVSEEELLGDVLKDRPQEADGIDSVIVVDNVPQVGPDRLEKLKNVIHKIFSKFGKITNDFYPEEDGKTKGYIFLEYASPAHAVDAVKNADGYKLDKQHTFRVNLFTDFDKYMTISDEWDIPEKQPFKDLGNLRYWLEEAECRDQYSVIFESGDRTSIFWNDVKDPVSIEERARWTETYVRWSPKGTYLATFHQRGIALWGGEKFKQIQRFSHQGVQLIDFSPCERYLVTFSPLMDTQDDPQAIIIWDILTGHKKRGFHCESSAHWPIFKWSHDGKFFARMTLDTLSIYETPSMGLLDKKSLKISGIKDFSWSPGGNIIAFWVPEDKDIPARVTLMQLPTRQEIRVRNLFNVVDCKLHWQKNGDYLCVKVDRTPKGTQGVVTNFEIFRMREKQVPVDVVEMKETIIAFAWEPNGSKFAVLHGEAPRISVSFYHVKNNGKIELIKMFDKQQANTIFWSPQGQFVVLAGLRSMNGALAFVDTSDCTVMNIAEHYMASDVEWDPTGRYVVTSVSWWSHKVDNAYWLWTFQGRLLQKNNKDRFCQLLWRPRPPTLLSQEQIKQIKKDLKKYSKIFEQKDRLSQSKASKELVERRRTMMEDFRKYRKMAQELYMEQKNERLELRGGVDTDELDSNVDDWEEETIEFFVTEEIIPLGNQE

Assays:
Test in all cases: log2 fold change, soluble protein after heating vs DMSO (PISA); higher = thermal stabilisation; K562 lysate, 10 uM; active = over 0.2 and 3.5 SD of the protein, either way, in both replicates (recomputed)
[1] = compound: C#Cc1cccc(Nc2ncnc3cc(OCCOC)c(OCCOC)cc23)c1 [erlotinib]
Method in brief: (§1)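 Thermal stability, expressed as log-two fold change relative to solvent controls, is given from duplicates. Crude K562 extract in PBS pH 7.4 with 1 mM MgCl2, at 1 mg/mL protein, was treated with 10 μM compound for 30 min and heated in aliquots for 3 min across 48°C-58°C. After pooling, adjustment to 0.5% NP-40 at 4°C and centrifugation at 21,000xg for 90 min, supernatant protein was measured by TMTpro 16plex LC-MS/MS with channel sums equalised.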

[2] = compound: C/C(=N\NC(=O)C1=CC(=CC=C1)S(=O)(=O)N2CCOCC2)/C3=C(C=CC(=C3)Cl)O
Method in brief: as §1

[3] = compound: C1=CC(=CC=C1C2=NC3=C(N2)C=C(C=C3)C(=O)N)OC4=CC=C(C=C4)Cl
Method in brief: as §1

[4] = compound: C1=CC2=C(C=CC(=C2)/C=C\3/C(=O)NC(=NCC4=CC=CS4)S3)N=C1
Method in brief: as §1

[5] = compound: C1=CC2=NC=CN=C2C=C1/C=C/3\C(=O)NC(=O)S3
Method in brief: as §1

[6] = compound: C1=CC=C(C=C1)C2=NC(=C(N2)C3=CC=NC=C3)C4=CC(=C(C=C4)Cl)O
Method in brief: as §1

[7] = compound: C1=CC=C2C(=C1)C3=NNC4=CC=CC(=C43)C2=O
Method in brief: as §1

[8] = compound: C1CCN(C1)C(=O)NC2=CC=CC(=C2)NC3=NC=C(C(=N3)NCCC4=CN=CN4)Br
Method in brief: as §1

[9] = compound: C1CN(CCC1(CC2=CC=C(C=C2)Cl)N)C3=NC=NC4=C3C=CN4
Method in brief: as §1

[10] = compound: C1COCCN1CCN2C3=CC=CC=C3N=C2NC(=O)C4=CC(=CC=C4)[N+](=O)[O-] [IRAK-1-4 Inhibitor I]
Method in brief: as §1

[11] = compound: C=CC(=O)N1CCC[C@@H](n2nc(-c3ccc(Oc4ccccc4)cc3)c3c(N)ncnc32)C1 [ibrutinib]
Method in brief: as §1

[12] = compound: CC(=O)c1cnc2ccc(-c3cc(Cl)c(O)c(Cl)c3)nc2c1N[C@H]1CC[C@H](CN(C)C)CC1
Method in brief: as §1

[13] = compound: CC(C)(C)Cn1c(N)nc2ccc(-c3[nH]c(C(C)(C)C)nc3-c3ccc(F)cc3)nc21 [ralimetinib]
Method in brief: as §1

[14] = compound: CC(C)(O)CC(=O)NCCn1ccc2ncnc(Nc3ccc(Oc4cccc(C(F)(F)F)c4)c(Cl)c3)c21
Method in brief: as §1

[15] = compound: CC(C)C1=C2N=C(C=C(N2N=C1)NCC3=CC=CC=C3)NCCCCCCN
Method in brief: as §1

[16] = compound: CC1=C(C(CC(=O)N1)C2=CC=C(C=C2)C(F)(F)F)C(=O)NC3=C(C=C4C(=C3)C=NN4)F
Method in brief: as §1

[17] = compound: CC1=C(C2=C(C=C1)C(=O)C3=CC=CC=C3N2CCCN)C
Method in brief: as §1

[18] = compound: CC1=C(C=C(C=C1)NC(=O)C2=CC(=CC=C2)C(C)(C)C#N)NC3=CC4=C(C=C3)N=CN(C4=O)C
Method in brief: as §1

[19] = compound: CC1=C(C=C(C=C1)NC(=O)C2=CC(=CC=C2)N(C)C)NC(=O)C3=CC=C(C=C3)O
Method in brief: as §1

[20] = compound: CC1=CC=C(C=C1)SC2=C3C=C(SC3=CN=C2)C(=O)N
Method in brief: as §1

Measured: log2 fold change

EIF3A (UniProt Q14152)
inactive: [1] -0.004 | [2] 0.04 | [3] -0.045 | [4] 0.028 | [5] 0.027 | [6] -0.008 | [7] -0.011 | [8] -0.002 | [9] 0.013 | [10] -0.008 | [11] 0.01 | [12] 0.014 | [13] 0.02 | [14] 0.019 | [15] -0.003 | [16] -0.013 | [17] -0.021 | [18] -0.039 | [19] 0.044 | [20] 0.023

ENTPD5 (UniProt O75356)
inactive: [1] -0.006 | [2] 0.192 | [3] -0.044 | [4] 0.07 | [5] -0.114 | [6] 0.007 | [7] -0.134 | [8] -0.051 | [9] 0.003 | [10] -0.027 | [11] 0.076 | [12] -0.013 | [13] -0.018 | [14] -0.002 | [15] 0.011 | [16] -0.007 | [17] -0.018 | [18] -0.042 | [19] -0.067 | [20] -0.001

EIF3K (UniProt Q9UBQ5)
inactive: [1] 0.029 | [2] 0.044 | [3] -0.024 | [4] 0.002 | [5] -0.052 | [6] -0.011 | [7] 0.018 | [8] 0.007 | [9] 0.014 | [10] 0.017 | [11] 0.004 | [12] -0.005 | [13] -0.007 | [14] -0.017 | [15] -0.008 | [16] 0.016 | [17] 0.023 | [18] 0.012 | [19] 0.002 | [20] 0.031

ELF1 (UniProt P32519)
inactive: [1] 0.052 | [2] -0.012 | [3] 0.094 | [4] -0.018 | [5] -0.026 | [6] 0.022 | [7] 0.015 | [8] -0.058 | [9] 0.023 | [10] -0.005 | [11] -0.008 | [12] 0.063 | [13] 0.004 | [14] -0.014 | [15] 0.037 | [16] 0.021 | [17] -0.007 | [18] 0.003 | [19] 0.03 | [20] -0.007

ERI1 (UniProt Q8IV48)
inactive: [1] -0.015 | [2] 0.073 | [3] -0.009 | [4] 0.019 | [5] -0.028 | [6] 0.134 | [7] -0.03 | [8] -0.009 | [9] -0.036 | [10] -0.111 | [11] -0.037 | [12] 0.022 | [13] -0.035 | [14] 0.085 | [15] 0.084 | [16] -0.05 | [17] 0 | [18] -0.033 | [19] 0.411 | [20] 0.012

EPB41L3 (UniProt Q9Y2J2)
inactive: [1] -0.038 | [2] 0 | [3] -0.036 | [4] 0.045 | [5] 0 | [6] 0.019 | [7] 0.021 | [8] 0.054 | [9] -0.017 | [10] -0.071 | [11] -0.025 | [12] 0.021 | [13] 0.007 | [14] 0.124 | [15] -0.009 | [16] 0.055 | [17] 0.054 | [18] -0.058 | [19] -0.003 | [20] 0.035

EIF6 (UniProt P56537)
inactive: [1] -0.006 | [2] -0.054 | [3] 0.033 | [4] -0.031 | [5] -0.053 | [6] -0.001 | [7] -0.029 | [8] -0.045 | [9] -0.006 | [10] 0.036 | [11] -0.032 | [12] -0.045 | [13] 0.034 | [14] -0.042 | [15] 0.03 | [16] -0.059 | [17] 0.028 | [18] 0.043 | [19] 0.01 | [20] -0.006

Reprinted from above (two entries):
ELF1 (UniProt P32519)
inactive: [1] 0.052 | [2] -0.012 | [3] 0.094 | [4] -0.018 | [5] -0.026 | [6] 0.022 | [7] 0.015 | [8] -0.058 | [9] 0.023 | [10] -0.005 | [11] -0.008 | [12] 0.063 | [13] 0.004 | [14] -0.014 | [15] 0.037 | [16] 0.021 | [17] -0.007 | [18] 0.003 | [19] 0.03 | [20] -0.007

ERI1 (UniProt Q8IV48)
inactive: [1] -0.015 | [2] 0.073 | [3] -0.009 | [4] 0.019 | [5] -0.028 | [6] 0.134 | [7] -0.03 | [8] -0.009 | [9] -0.036 | [10] -0.111 | [11] -0.037 | [12] 0.022 | [13] -0.035 | [14] 0.085 | [15] 0.084 | [16] -0.05 | [17] 0 | [18] -0.033 | [19] 0.411 | [20] 0.012

The results go on.

ENY2 (UniProt Q9NPA8)
inactive: [1] 0.033 | [2] 0.03 | [3] -0.015 | [4] 0.002 | [5] -0.026 | [6] 0.043 | [7] 0.081 | [8] 0.104 | [9] -0.087 | [10] -0.019 | [11] 0.161 | [12] 0.038 | [13] -0.021 | [14] 0.057 | [15] 0 | [16] -0.069 | [17] 0.066 | [18] 0.075 | [19] -0.052 | [20] 0.035

ERAL1 (UniProt O75616)
inactive: [1] -0.016 | [2] -0.003 | [3] 0.05 | [4] -0.014 | [5] 0.03 | [6] 0.015 | [7] -0.027 | [8] -0.041 | [9] -0.047 | [10] -0.042 | [11] 0.052 | [12] -0.042 | [13] 0.03 | [14] 0.011 | [15] -0.007 | [16] 0.047 | [17] 0.03 | [18] 0.014 | [19] 0.045 | [20] 0.018

EIF2S1 (UniProt P05198)
inactive: [1] -0.013 | [2] 0.031 | [3] -0.01 | [4] -0.02 | [5] -0.025 | [6] 0.019 | [7] -0.002 | [8] -0.017 | [9] 0.019 | [10] -0.001 | [11] -0.029 | [12] -0.006 | [13] -0.012 | [14] -0.021 | [15] -0.004 | [16] -0.028 | [17] 0.004 | [18] 0.017 | [19] -0.004 | [20] 0.01

EPB41L1 (UniProt Q9H4G0)
inactive: [1] -0.008 | [2] 0.115 | [3] 0.009 | [4] 0.021 | [5] 0.05 | [6] 0.016 | [7] -0.007 | [8] -0.066 | [9] -0.039 | [10] 0.044 | [11] 0.003 | [12] 0.03 | [13] -0.006 | [14] -0.072 | [15] 0.003 | [16] 0.021 | [17] 0.038 | [18] -0.033 | [19] -0.005 | [20] 0.007

EIF3I (UniProt Q13347)
inactive: [1] 0.013 | [2] 0.033 | [3] -0.029 | [4] 0.001 | [5] 0.022 | [6] 0 | [7] -0.026 | [8] 0.004 | [9] -0.007 | [10] -0.039 | [11] 0.018 | [12] -0.019 | [13] 0.035 | [14] 0.046 | [15] 0.032 | [16] 0.003 | [17] 0.013 | [18] 0.009 | [19] 0.056 | [20] 0.022

EIF3G (UniProt K7ER90)
inactive: [1] 0.001 | [2] -0.097 | [3] 0.009 | [4] -0.1 | [5] -0.101 | [6] -0.055 | [7] -0.085 | [8] -0.206 | [9] 0.046 | [10] -0.043 | [11] -0.146 | [12] 0.013 | [13] -0.062 | [14] -0.008 | [15] 0.057 | [16] -0.142 | [17] 0.134 | [18] 0.118 | [19] 0.013 | [20] 0.037

ENSA isoform 3 (UniProt O43768)
active: [6] -0.459
inactive: [1] -0.034 | [2] 0.032 | [3] 0 | [4] -0.013 | [5] -0.047 | [7] 0.013 | [8] 0.006 | [9] 0.006 | [10] -0.004 | [11] 0.042 | [12] 0.015 | [13] -0.019 | [14] 0.02 | [15] -0.013 | [16] -0.016 | [17] 0.039 | [18] -0.042 | [19] -0.057 | [20] -0.01

EOGT (UniProt Q5NDL2)
inactive: [1] -0.028 | [2] -0.057 | [3] -0.023 | [4] -0.086 | [5] -0.022 | [6] -0.025 | [7] -0.045 | [8] -0.005 | [9] 0.043 | [10] 0.045 | [11] 0.018 | [12] -0.005 | [13] 0.113 | [14] -0.041 | [15] -0.036 | [16] -0.033 | [17] -0.091 | [18] -0.049 | [19] -0.003 | [20] -0.015

EIF3B isoform 2 (UniProt P55884)
inactive: [1] 0.005 | [2] -0.056 | [3] 0.006 | [4] -0.018 | [5] 0.006 | [6] -0.005 | [7] -0.016 | [8] -0.02 | [9] 0.001 | [10] -0.008 | [11] -0.029 | [12] -0.005 | [13] 0.007 | [14] -0.002 | [15] -0.011 | [16] -0.018 | [17] 0.004 | [18] 0.015 | [19] -0.001 | [20] 0.007
